# Measured values: patent US11793880B2, “Conjugates of quaternized tubulysin compounds” (Seagen Inc., priority 2015, dated 2023)
# At least one structure is not confirmed: it was looked up by name or label, or the drawing left a doubt.
# System: Karpas299, L540cy, L428, DEL, DEL/BVR cell lines
# Assay: In vitro assays - tubulysin ADCs, statements across the cell line panel
# Type: cell-based
# Settings: Table 5; cAC10 ADCs 8 drugs/mAb, quaternized tubulysin M
# Description: In vitro assays. Cells cultured in log-phase growth were seeded for 24 h in 96-well plates containing 150 μL RPMI 1640 supplemented with 20% FBS. Serial dilutions of antibody-drug conjugates in cell culture media were prepared at 4× working concentrations; 50 μL of each dilution was added to the 96-well plates. […] After 96 h, growth inhibition was assessed by CellTiter-Glo® (Promega, Madison, WI) and luminescence was measured on a plate reader.
# In vitro assays—tubulysin ADCs. ADCs were prepared by t Ell reduction of interchain disulfides to reveal 8-conjugatable cysteines/antibody that were alkylated through Michael addition with the maleimide-containing Drug Linker compounds. […] conjugates hearing quaternized tubulysin ethers with and without a PEG12 side-chain were compared to their tubulysin M analogs.
# Several hydrophilic linker constructs incorporating quaternized tubulysin M were prepared and evaluated in vitro; the results are shown in Table 5. The data (IC50 values in ng/mL) indicate that Conjugates prepared from Drug Linker compounds having quaternized tubulysin M linked via a hydrophilic ValGlu dipeptide with (95) or without (91) a PEG12 side chain, or linked via a hydrophilic glucuronide (82) provide ADCs that are equipotent to the ValAla comparator (15).
smiles,measurement,value
"CC[C@H](C)[C@H](NC(=O)[C@H]1CCCC[N+]1(C)Cc1ccc(O[C@@H]2O[C@H](C(=O)O)[C@@H](O)[C@H](O)[C@H]2O)c(NC(=O)CCNC(=O)[C@H](CN)N2C(=O)C=CC2=O)c1)C(=O)N(C)[C@H](C[C@@H](OC(C)=O)c1nc(C(=O)N[C@@H](Cc2ccccc2)C[C@H](C)C(=O)O)cs1)C(C)C (stereo partly drawn) [Compound 82, (2R)-2-(((2S,3S)-1-(((1R,3R)-1-acetoxy-1-(4-(((2R,4S)-4-carboxy-1-phenylpentan-2-yl)carbamoyl)thiazol-2-yl)-4-methylpentan-3-yl)(methyl)amino)-3-methyl-1-oxopentan-2-yl)carbamoyl)-1-(3-(3-((S)-3-amino-2-(2,5-dioxo-2,5-dihydro-1H-pyrrol-1-yl)propanamido)propanamido)-4-(((2S,3R,4S,5S,6S)-6-carboxy-3,4,5-trihydroxytetrahydro-2H-pyran-2-yl)oxy)benzyl)-1-methylpiperidin-1-ium]","potency relative to the ValAla comparator (15), in words",equipotent
